Data source: PubChem BioAssay AID1259405 (NCATS, 2018)
Shown is one part, drawn at random, of about 50,000 reagents tested. About 4,000 of them (8%) were called active. 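Mouse siRNA library applied to hamster cells; one well for each siRNA.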 Unmarked entries are inactive. The numbers tell different reagents against one gene apart.

Purpose: 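Knock-downs that lift recombinant protein yield in hamster ovary cells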 (primary screen)
System: Chinese hamster CHO-K1 ovary cells with stable secreted eGFP expression
Reagents: single siRNA against mouse genes, 0.8 pmol siRNA per well (2 µl of 400 nM stock)
Duration: 3 days
Detection: 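Per-well intracellular GFP measured by laser scanning cytometry, plus viability from ATP luminescence, each relative to plate median of non-targeting control wells, in %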
Scale: GFP, % of control: higher = more GFP per well, higher productivity; viability (ATP), % of control: higher = more viable cells (more ATP)
Hit rule: 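Called active when intracellular GFP, relative to negative control, is at or above 120%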

Which result is listed for Marcksl1 (MARCKS-like 1) #1?
GFP, % of control: 142 (active); viability (ATP), % of control: 89.4

For Marcksl1 (MARCKS-like 1) #2, what does the deposit list?
GFP, % of control: 124 (active); viability (ATP), % of control: 68.4

What did the screen give for Marcksl1 (MARCKS-like 1) #3?
GFP, % of control: 31; viability (ATP), % of control: 35.9

With Igfbp7 (insulin-like growth factor binding protein 7) #1, what does the deposit list?
GFP, % of control: 42.4; viability (ATP), % of control: 38.7

With Igfbp7 (insulin-like growth factor binding protein 7) #2, what does the deposit list?
GFP, % of control: 38.8; viability (ATP), % of control: 39.8

With Adam20 (a disintegrin and metallopeptidase domain 20) #1, what does the deposit list?
GFP, % of control: 163 (active); viability (ATP), % of control: 71.6

For Adam20 (a disintegrin and metallopeptidase domain 20) #2, what was measured?
GFP, % of control: 70.6; viability (ATP), % of control: 54.9

What is on record for Adam20 (a disintegrin and metallopeptidase domain 20) #3?
GFP, % of control: 59.2; viability (ATP), % of control: 56

Which result is listed for Zbtb10 (zinc finger and BTB domain containing 10) #1?
GFP, % of control: 68.7; viability (ATP), % of control: 66

What did the screen give for Zbtb10 (zinc finger and BTB domain containing 10) #2?
GFP, % of control: 62.7; viability (ATP), % of control: 87.1

With Zbtb10 (zinc finger and BTB domain containing 10) #3, what does the deposit list?
GFP, % of control: 53.6; viability (ATP), % of control: 53.2

With Pcdhga3 (protocadherin gamma subfamily A, 3) #1, what does the deposit list?
GFP, % of control: 65.5; viability (ATP), % of control: 72.5

With Pcdhga3 (protocadherin gamma subfamily A, 3) #2, how do the results read?
GFP, % of control: 59.6; viability (ATP), % of control: 66.2

With Pcdhga3 (protocadherin gamma subfamily A, 3) #3, how do the results read?
GFP, % of control: 0; viability (ATP), % of control: 75.6

Which result is listed for Mrps18b (mitochondrial ribosomal protein S18B) #1?
GFP, % of control: 34.8; viability (ATP), % of control: 40.7

With Mrps18b (mitochondrial ribosomal protein S18B) #2, what was measured?
GFP, % of control: 109; viability (ATP), % of control: 86.9

For Mrps18b (mitochondrial ribosomal protein S18B) #3, what was measured?
GFP, % of control: 96; viability (ATP), % of control: 69.7

Already shown: entries from further up.
Marcksl1 (MARCKS-like 1) #2 → GFP, % of control: 124 (active); viability (ATP), % of control: 68.4
Marcksl1 (MARCKS-like 1) #3 → GFP, % of control: 31; viability (ATP), % of control: 35.9
Igfbp7 (insulin-like growth factor binding protein 7) #1 → GFP, % of control: 42.4; viability (ATP), % of control: 38.7

Additional results:
For Cdhr3 (cadherin-related family member 3) #1, how do the results read?
GFP, % of control: 62.4; viability (ATP), % of control: 48.7

For Cdhr3 (cadherin-related family member 3) #2, how do the results read?
GFP, % of control: 19.4; viability (ATP), % of control: 46.8

What is on record for Cdhr3 (cadherin-related family member 3) #3?
GFP, % of control: 48; viability (ATP), % of control: 56.8

What is on record for Dll3 (delta like canonical Notch ligand 3) #1?
GFP, % of control: 140 (active); viability (ATP), % of control: 76.1

What is on record for Dll3 (delta like canonical Notch ligand 3) #2?
GFP, % of control: 71.6; viability (ATP), % of control: 81.9

With Dll3 (delta like canonical Notch ligand 3) #3, what does the deposit list?
GFP, % of control: 87.8; viability (ATP), % of control: 88.1

With Uncx (UNC homeobox) #1, what does the deposit list?
GFP, % of control: 65.8; viability (ATP), % of control: 86.8

What did the screen give for Uncx (UNC homeobox) #2?
GFP, % of control: 82.2; viability (ATP), % of control: 66.8

With Uncx (UNC homeobox) #3, what was measured?
GFP, % of control: 79.5; viability (ATP), % of control: 71.2

With Zcchc14 (zinc finger, CCHC domain containing 14) #1, what does the deposit list?
GFP, % of control: 76.2; viability (ATP), % of control: 84

How did the screen score Zcchc14 (zinc finger, CCHC domain containing 14) #2?
GFP, % of control: 50.3; viability (ATP), % of control: 67.9

What is on record for Zcchc14 (zinc finger, CCHC domain containing 14) #3?
GFP, % of control: 77.6; viability (ATP), % of control: 102

How did the screen score Or2t48 (olfactory receptor family 2 subfamily T member 48) #1?
GFP, % of control: 24.7; viability (ATP), % of control: 25.4

How did the screen score Or2t48 (olfactory receptor family 2 subfamily T member 48) #2?
GFP, % of control: 79.9; viability (ATP), % of control: 42.7

How did the screen score Or2t48 (olfactory receptor family 2 subfamily T member 48) #3?
GFP, % of control: 58.9; viability (ATP), % of control: 90.5

With Trim12a (tripartite motif-containing 12A) #1, what does the deposit list?
GFP, % of control: 96.8; viability (ATP), % of control: 46.5

For Trim12a (tripartite motif-containing 12A) #2, what was measured?
GFP, % of control: 65.2; viability (ATP), % of control: 69.8

What did the screen give for Trim12a (tripartite motif-containing 12A) #3?
GFP, % of control: 66.1; viability (ATP), % of control: 73.1

What is on record for Irf3 (interferon regulatory factor 3) #1?
GFP, % of control: 74.8; viability (ATP), % of control: 71.7

What is on record for Irf3 (interferon regulatory factor 3) #2?
GFP, % of control: 83.6; viability (ATP), % of control: 64

What did the screen give for Irf3 (interferon regulatory factor 3) #3?
GFP, % of control: 97.8; viability (ATP), % of control: 106

What did the screen give for Csrp1 (cysteine and glycine-rich protein 1) #1?
GFP, % of control: 111; viability (ATP), % of control: 84.5

How did the screen score Csrp1 (cysteine and glycine-rich protein 1) #2?
GFP, % of control: 59.6; viability (ATP), % of control: 64.3
